Publication PMC5366859
No constants are given. Whether binding was seen depends on the method and setting. For part of these data: In cells and extracts the contact can be indirect. Some entries that bind do so weakly or less than the wild type. For part of these data: Tags and fused reporters may be left off the sequences shown. Each block holds one molecule with its values, some of them ahead of it.

Amino acid sequences for entries named in this document (tags omitted).
UniProt Q9FTA2: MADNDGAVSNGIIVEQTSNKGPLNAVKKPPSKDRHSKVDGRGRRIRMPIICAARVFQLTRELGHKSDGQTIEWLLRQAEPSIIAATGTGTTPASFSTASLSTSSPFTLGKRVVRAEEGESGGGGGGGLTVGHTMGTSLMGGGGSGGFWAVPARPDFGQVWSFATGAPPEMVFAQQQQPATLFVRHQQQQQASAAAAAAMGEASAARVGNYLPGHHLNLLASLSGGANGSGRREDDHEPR

Columns and labels:
[1] = target: T1, A. thaliana TIMING OF CAB EXPRESSION1 (AtTOC1), yeast two-hybrid bait (A. thaliana) (UniProt Q9LKL2); experiment: two-hybrid; yeast; AtTOC1 or AaTOC1 as bait (pGBKT7-BD), AtCHE or AaCHE as prey (pGADT7-AD); quadruple dropout medium with X-α-gal (QDO/X) and quantitative α-galactosidase (PNG) assay relative to p53-T
T1 sequence: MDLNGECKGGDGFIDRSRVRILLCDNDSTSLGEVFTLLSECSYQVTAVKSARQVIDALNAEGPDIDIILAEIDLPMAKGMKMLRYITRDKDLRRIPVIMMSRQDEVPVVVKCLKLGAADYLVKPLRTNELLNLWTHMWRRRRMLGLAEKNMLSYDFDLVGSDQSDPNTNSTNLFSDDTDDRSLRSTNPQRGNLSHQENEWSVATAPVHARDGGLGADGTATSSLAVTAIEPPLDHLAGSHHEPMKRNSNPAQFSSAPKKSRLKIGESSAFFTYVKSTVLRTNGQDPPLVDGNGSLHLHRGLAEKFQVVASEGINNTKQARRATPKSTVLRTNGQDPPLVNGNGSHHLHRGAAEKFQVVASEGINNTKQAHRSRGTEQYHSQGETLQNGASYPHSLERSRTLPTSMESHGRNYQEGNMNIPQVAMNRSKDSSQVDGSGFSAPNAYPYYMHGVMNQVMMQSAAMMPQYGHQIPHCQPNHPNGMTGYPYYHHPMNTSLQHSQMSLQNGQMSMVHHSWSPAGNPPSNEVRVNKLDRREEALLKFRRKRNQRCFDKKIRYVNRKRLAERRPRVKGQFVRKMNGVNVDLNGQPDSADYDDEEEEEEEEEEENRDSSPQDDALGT

[2] = target: A. thaliana CCA1 HIKING EXPEDITION (AtCHE), yeast two-hybrid bait (A. thaliana) (UniProt Q9FTA2); experiment: two-hybrid; yeast; AtCHE or AaCHE as bait (pGBKT7-BD, Y2H gold), AtHD1 or AaHD1 as prey (pGADT7-AD, Y187), mated; limited growth in the triple dropout media
[3] = target: NGFP:AtCHE (A. thaliana) (UniProt Q9FTA2); experiment: split reporter; split GFP complementation in E. coli Rossetta2 (DE3): NGFP:CHE (T7 promoter, IPTG) co-expressed with HD1:CGFP (PBAD promoter, arabinose); GFP fluorescence microscopy and flow cytometry (FACSCalibur, ~10,000 events), 20 °C for 2 days

binding [1]: binds
Molecule: A. thaliana CCA1 HIKING EXPEDITION (AtCHE), yeast two-hybrid prey (from UniProt Q9FTA2 1-239)

binding [2]: binds weakly
B1: A. thaliana HISTONE …1 (AtHD1), yeast two-hybrid prey (protein, UniProt O22446 1-501)
chain: MDTGGNSLASGPDGVKRKVCYFYDPEVGNYYYGQGHPMKPHRIRMTHALLAHYGLLQHMQVLKPFPARDRDLCRFHADDYVSFLRSITPETQQDQIRQLKRFNVGEDCPVFDGLYSFCQTYAGGSVGGSVKLNHGLCDIAINWAGGLHHAKKCEASGFCYVNDIVLAILELLKQHERVLYVDIDIHHGDGVEEAFYATDRVMTVSFHKFGDYFPGTGHIQDIGYGSGKYYSLNVPLDDGIDDESYHLLFKPIMGKVMEIFRPGAVVLQCGADSLSGDRLGCFNLSIKGHAECVKFMRSFNVPLLLLGGGGYTIRNVARCWCYETGVALGVEVEDKMPEHEYYEYFGPDYTLHVAPSNMENKNSRQMLEEIRNDLLHNLSKLQHAPSVPFQERPPDTETPEVDEDQEDGDKRWDPDSDMDVDDDRKPIPSRVKREAVEPDTKDKDGLKGIMERGKGCEVEVDESGSTKVTGVNPVGVEEASVKMEEEGTNKGGAEQAFPPKT

binding [3]: binds
B2: AtHD1:CGFP (protein, UniProt O22446 1-501)
chain: MDTGGNSLASGPDGVKRKVCYFYDPEVGNYYYGQGHPMKPHRIRMTHALLAHYGLLQHMQVLKPFPARDRDLCRFHADDYVSFLRSITPETQQDQIRQLKRFNVGEDCPVFDGLYSFCQTYAGGSVGGSVKLNHGLCDIAINWAGGLHHAKKCEASGFCYVNDIVLAILELLKQHERVLYVDIDIHHGDGVEEAFYATDRVMTVSFHKFGDYFPGTGHIQDIGYGSGKYYSLNVPLDDGIDDESYHLLFKPIMGKVMEIFRPGAVVLQCGADSLSGDRLGCFNLSIKGHAECVKFMRSFNVPLLLLGGGGYTIRNVARCWCYETGVALGVEVEDKMPEHEYYEYFGPDYTLHVAPSNMENKNSRQMLEEIRNDLLHNLSKLQHAPSVPFQERPPDTETPEVDEDQEDGDKRWDPDSDMDVDDDRKPIPSRVKREAVEPDTKDKDGLKGIMERGKGCEVEVDESGSTKVTGVNPVGVEEASVKMEEEGTNKGGAEQAFPPKT
